At least one compound was matched to its structure with a doubt left.
Experiment: AIOR assay (antioxidant inhibition of radical assay): uroporphyrin I fluorescence decay with AAPH, area under curve against Trolox standard curve
Assay type: biochemical
Procedure: The stock phosphate buffer (0.75 M, pH 7.0) was prepared by mixing 61.1:38.9 (v/v) of a 0.75 M K2HPO4 and a 0.75 M NaH2PO4 solution. The working phosphate buffer 75 mM, pH 7.0 was prepared by a 1:9 (v/v) dilution of the 0.75 M stock phosphate buffer.
AAPH (583 mM) was prepared by dissolving completely 0.474 g of AAPH in 3 mL of 75 mM, pH 7.0 phosphate buffer. This solution was prepared freshly before each run.
Uroporphyrin stock solution (225 μM) was prepared by dissolving 1.2 mg of uroporphyrin I dihydrochloride in 5.9 mL of phosphate buffer (75 mM, pH 7.0). This solution was very stable for many months by storing in the dark at 4° C. A secondary uroporphyrin stock solution for routine use was prepared by a 1:50 (v/v) dilution of the stock uroporphyrin solution with phosphate buffer (75 mM, pH 7.0). This secondary stock solution was stable for several months in the dark at 4° C. A working uroporphyrin solution for daily use was prepared by a 1:750 (v/v) dilution of the secondary uroporphyrin solution with phosphate buffer (75 mM, pH 7.0).
To enable complete solubility of both hydrophobic and hydrophilic compounds in the sample, a surfactant Brij 35™ was added to the working uroporphyrin solution in the quantity of 0.1% of the reagent.
Trolox was used as an antioxidant standard to compare the antioxidant status of various inorganic and organic matter. A stock Trolox standard solution (5.0 mM) was prepared by dissolving Trolox 35 (250 mg) in 200 mL of phosphate buffer (75 mM, pH 7.0). Working standards of Trolox were prepared by diluting the stock Trolox standard to 0.5, 1.0 and 2.0 mM with the same buffer.
Sample/blank/standard (1 μL), and working uroporphyrin solution (0.300 uM) with Brij™ (136 μL) were added to the wells of a 96-well microplate. Blank, standards or diluted samples were added first into the well, followed by working uroporphyrin solution with Brij™. […] The contents of the wells were then mixed again for exactly 2 minutes before acquisition of data with the Varian Cary Eclipse fluorescence spectrophotometer. […]
The Varian Cary Eclipse fluorescence spectrophotometer settings were as follows. • Excitation λ=397 nm; Emission λ=615 nm. • Excitation Slit=20 nm; Emission Slit=10 nm. • Ave Time=0.2 sec. • Run Time=180 minutes. • Y (min-max)=0-1000. • Excitation Filter: Auto. • Emission Filter: Open. • PMT: Variable (Choice of low, medium or high).
The method takes the free radical action to completion in 180 minutes. The Varian Cary Eclipse fluorescence spectrophotometer has the ability to achieve high throughput of 96 samples in 180 minutes with the 96-wellplate format. […]
The results of the analysis were normalized by Varian Cary Eclipse software and calculated by GraphPad Prism 4.0 software (GraphPad Software, Inc., San Diego Calif., 2003).

C[C@@H]1O[C@@H](OC[C@H]2O[C@@H](Oc3c(-c4ccc(O)c(O)c4)oc4cc(O)cc(O)c4c3=O)[C@H](O)[C@@H](O)[C@@H]2O)[C@H](O)[C@H](O)[C@H]1O [Rutin]
Antioxidant Status (mM) Trolox Equivalent Calculated 1/16 Dilution (calculated from the observed ¼ dilution value): 0.95 mM
Antioxidant Status Trolox Equivalent (mM) of the observed individual ¼ Dilution (individual polyphenol, ¼ dilution, n=9): 3.79 ± 0.25 mM
Antioxidant Status Trolox Equivalent (mM ± SD) (polyphenol 0.25 mM in ethanol): 1.58 ± 0.09 mM
Antioxidant Status Trolox Equivalent (mM ± SD) (polyphenol 0.5 mM in ethanol): 3.39 ± 0.40 mM
